## Screening data

Data taken from PubChem BioAssay AID1224904, deposited by Broad Institute (2016).

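293T-iDUX4 dual-reporter cells; luminescence of the tet-on Italica luciferase control is read after 24 h. The test concentration is not given here. Percent change in the Italica control signal; more negative values mean stronger inhibition, which points to nonspecific, tet-on or cytotoxic effects.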

Values are in %. Common to all entries: measured here: Italica tet-on control reporter. Part of the compounds only, not a random draw; the main read-out is not listed here.

| SMILES | activity change (%) |
|---|---|
| `COc1cccc(-c2ccc3n(c2=O)C[C@@H]2[C@@H](CO)[C@H](C(=O)NC4Cc5ccccc5C4)N[C@H]32)c1` | -8.052 |
| `C[C@H]1CN([C@@H](C)CO)C(=O)c2c(c3ccccc3n2C)-c2ccccc2CO[C@@H]1CN(C)S(=O)(=O)c1cccs1` | -6.845 |
| `COc1cccc(-c2ccc3c(c2)[C@@H]2[C@@H](CCN2C(=O)NC2CCCC2)[C@@H](CO)N3C)c1` | -43.62 |
| `COc1ccc2c3c(n(C)c2c1)[C@H](CO)N(Cc1ccccc1)CC31CN(S(=O)(=O)c2ccc(C)cc2)C1` | -73.56 |
| `O=C(Nc1cc(F)ccc1F)N1CC(=O)N2[C@@H](CO)[C@@H](c3ccc(C#CC4CCCCC4)cc3)[C@@H]2C1` | -27.83 |
| `C[C@H]1CN([C@@H](C)CO)C(=O)c2ccccc2-c2ccccc2CO[C@H]1CN(C)S(=O)(=O)c1ccc(C(F)(F)F)cc1` | -13.95 |
| `O=C(C1CCC1)N1CC2(C1)[C@H](c1ccccc1)[C@@H](CO)N2Cc1ccc(Cl)cc1` | -7.446 |
| `CN1c2ccc(-c3ccc(F)cc3)cc2[C@H]2[C@H](CCN2C(=O)Nc2cc(F)ccc2F)[C@H]1CO` | -38.85 |
| `COc1ccccc1-c1ccc([C@@H]2[C@H](CO)N(CC3CC3)C23CN(S(C)(=O)=O)C3)cc1` | -3.694 |
| `COc1ccc2c3c(n(C)c2c1)[C@@H](CO)N(S(=O)(=O)c1ccc(C)cc1)CC31CCN(Cc2cccnc2)CC1` | -9.587 |
| `O=C(Nc1cccc(F)c1)N1CC(=O)N2[C@@H](CO)[C@H](c3ccc(C#CC4CC4)cc3)[C@@H]2C1` | -6.21 |
| `COc1ccc(S(=O)(=O)N2CC[C@@H]3[C@H](CO)Nc4ccc(C#Cc5cccnc5)cc4[C@@H]32)cc1` | -24.45 |
| `COc1cccc(CN(C)C[C@@H]2OCc3ccccc3-c3c(n(C)c4ccccc34)C(=O)N([C@@H](C)CO)C[C@@H]2C)c1` | -16.21 |
| `CN1c2ccc(C#Cc3ccccc3F)cc2[C@@H]2[C@@H](CCN2C(=O)Cc2cccnc2)[C@H]1CO` | 0.4246 |
| `O=C(c1ccccc1F)N1CC2(C1)[C@H](c1ccccc1)[C@H](CO)N2CC1CCCC1` | -25.16 |
| `CCCN1[C@H](C(=O)N[C@@H](C)c2ccccc2)[C@@H](CO)[C@@H]2Cn3c(ccc(-c4cccc(F)c4)c3=O)[C@@H]21` | -34.8 |
| `O=C(Nc1ccccc1F)N1CCCCN2[C@@H](CO)[C@@H](c3ccc(/C=C/c4ccccc4)cc3)[C@@H]2C1` | -38.29 |
| `COc1ccc2c3c([nH]c2c1)[C@H](CO)N(Cc1cc(F)ccc1F)CC31CN(C(C)=O)C1` | -91.11 |
| `COc1cccc(S(=O)(=O)N2CC[C@@H]3[C@H](CO)Nc4ccc(-c5ccc(C#N)cc5)cc4[C@@H]32)c1` | -51.18 |
| `COc1ccc2c3c([nH]c2c1)[C@H](CO)N(Cc1cccc(F)c1)CC31CCN(CC2CC2)CC1` | -86.95 |
| `CC(C)COC(=O)N(C)C[C@@H]1OCc2ccccc2-c2c(n(C)c3ccccc23)C(=O)N([C@@H](C)CO)C[C@@H]1C` | -40.23 |
| `COc1cc(CN2C[C@@H]3N[C@H](C2)C3c2ccc(-c3cccc(OC)c3)cc2)cc(OC)c1` (some centres undefined) | -97.52 |
| `COc1ccc(C#Cc2ccc([C@@H]3[C@H]4CN(C(=O)c5ccc(F)cc5)CC(=O)N4[C@H]3CO)cc2)cc1` | -12.94 |
| `COc1ccc(-c2ccc([C@H]3[C@@H](CO)N4CCCCN(C(=O)c5ccc(F)cc5)C[C@@H]34)cc2)cc1` | -3.369 |
| `O=C(C[C@@H]1C[C@H]2c3cc(NC(=O)c4ccc5c(c4)OCO5)ccc3O[C@H]2[C@H](CO)O1)NCCc1ccccc1` | -6.928 |
| `C/C=C/c1ccc([C@@H]2[C@@H](CO)N(C(=O)NC(C)C)C23CN(Cc2ccc(OC)cc2)C3)cc1` | -5.022 |
| `COc1ccc2c3c([nH]c2c1)[C@H](CO)N(Cc1nccs1)CC31CCN(C(=O)C2CCCCC2)CC1` | -16.97 |
| `COc1ccc2c3c([nH]c2c1)[C@@H](CO)N(Cc1ccccn1)CC31CN(C(=O)c2ccccn2)C1` | 0.3731 |
| `COc1ccccc1-c1ccc2c(c1)[C@@H]1[C@@H](CCN1S(=O)(=O)c1ccccc1)[C@H](CO)N2` | -76.34 |
| `O=C(c1cccc(F)c1)N1CCCCN2[C@H](C1)[C@@H](c1ccc(C#CC3(O)CCCC3)cc1)[C@@H]2CO` | -7.011 |
| `COc1ccc(C#Cc2ccc([C@H]3[C@@H](CO)N4CCCCN(C(=O)Cc5cccnc5)C[C@@H]34)cc2)cc1` | -5.178 |
| `CCc1csc(N2[C@@H](C#N)[C@@H](c3ccccc3-c3cccc(F)c3)[C@@H]2CO)n1` | -5.534 |
| `O=C(C[C@H]1CC[C@H]2[C@@H](COC[C@H](O)CN2Cc2ccc(C(F)(F)F)cc2)O1)NCCc1ccccc1` | -12.39 |
| `COc1ccc2c3c([nH]c2c1)[C@H](CO)N(Cc1ccccc1Cl)CC31CN(C(C)=O)C1` | -85.45 |
| `C[C@H](C(=O)N(C)C[C@@H]1OCc2ccccc2-c2ccccc2C(=O)N([C@H](C)CO)C[C@@H]1C)c1ccccc1` | -68.07 |
| `COc1cccc(S(=O)(=O)N(C)C[C@@H]2OCc3ccccc3-c3c(n(C)c4ccccc34)C(=O)N([C@H](C)CO)C[C@H]2C)c1` | -10.31 |
| `C[C@H](CO)N1C[C@H](C)[C@@H](CN(C)C(=O)Nc2cccc(Cl)c2Cl)OCc2ccccc2-c2ccccc2C1=O` | -2.384 |
| `OC[C@H]1[C@@H](c2ccc(-c3ccc(F)cc3)cc2)[C@H]2CN(CCC(F)(F)F)CCCCN21` | -9.927 |
| `N#Cc1cccc(-c2ccc3c(c2)[C@@H]2[C@@H](CCN2C(=O)CN2CCOCC2)[C@@H](CO)N3)c1` | -2.052 |
| `CN(C)C(=O)c1cccc(-c2ccc3c(c2)[C@@H]2[C@@H](CCN2C(=O)c2ccncc2)[C@@H](CO)N3C)c1` | 0.9276 |
| `COc1ccc(-c2ccc3c(c2)[C@H]2[C@H](CCN2S(=O)(=O)c2ccc(OC)cc2)[C@H](CO)N3C)cc1` | -61.92 |

2 of the entries, repeated:

| SMILES | activity change (%) |
|---|---|
| `COc1cccc(S(=O)(=O)N(C)C[C@@H]2OCc3ccccc3-c3c(n(C)c4ccccc34)C(=O)N([C@H](C)CO)C[C@H]2C)c1` | -10.31 |
| `O=C(C[C@H]1CC[C@H]2[C@@H](COC[C@H](O)CN2Cc2ccc(C(F)(F)F)cc2)O1)NCCc1ccccc1` | -12.39 |